21 compounds from PubChem BioAssay AID248 (DTP/NCI, 2004) can be followed below.

This experiment relates to L1210 leukemia ip in BDF1 mice, survival T/C. The experiment can be described thus: NCI In Vivo Anticancer Drug Screen. Data for tumor model L1210 Leukemia (intraperitoneal) in B6D2F1 (BDF1) mice. Particulars: T/C endpoint: mean survival time, higher T/C = longer survival.
The mark [1] stands for this setting: dose: 40.0 mg/kg/injection, schedule: Q01DX001 (ip), vehicle: saline.
Setting [2] is: dose: 80.0 mg/kg/injection, schedule: Q01DX001 (ip), vehicle: saline.
The mark [3] stands for this setting: dose: 200.0 mg/kg/injection, schedule: Q01DX001 (ip), vehicle: saline.
The mark [4] stands for this setting: dose: 200.0 mg/kg/injection, schedule: Q04DX003 (ip), vehicle: saline.
Where [5] appears, read: dose: 400.0 mg/kg/injection, schedule: Q01DX001 (ip), vehicle: saline.
Setting [6] is: dose: 400.0 mg/kg/injection, schedule: Q04DX003 (ip), vehicle: Klucel (hydroxypropylcellulose) (HPC).
The mark [7] stands for this setting: dose: 400.0 mg/kg/injection, schedule: Q04DX003 (ip), vehicle: saline.
The mark [8] stands for this setting: dose: 100.0 mg/kg/injection, schedule: Q01DX009 (ip), vehicle: saline with Tween-80.
Setting [9] is: dose: 300.0 mg/kg/injection, schedule: Q01DX001 (ip), vehicle: saline.
Where [10] appears, read: dose: 400.0 mg/kg/injection, schedule: Q01DX001 (ip), vehicle: carboxymethylcellulose (CMC).

The list shows only some results of the screen, not a fair sample: it gathers tests that were run many times, whatever their T/C, doses with no T/C, and many T/C values between a quarter and a half above the control. Other doses and runs of a compound stand elsewhere. T/C: endpoint of the treated group in % of that of the vehicle group. Some doses have a count of surviving animals in place of a T/C: the source files T/C as zero there, which appears to mark a toxic dose or a test without result, not a measured value. Some survivor counts are full or nearly so, which does not show that the dose was tolerated: the source hardly ever lists a survival T/C far under the control, and the zero likely stands for such cases as well. Counts of survivors are from the toxicity check (mostly the fifth day) where no day follows; animals may have died later. Schedule codes are those of the source, taken here to give the interval after Q, in days (D) or hours (H), and the number of doses after X. Where survival is the endpoint, this PubChem deposit counts one and a half times the control or more as active, and values a quarter to a half above the control carry no call in these data; other NCI protocols may use other cut-offs. Some T/C values carry the count of animals alive at the toxicity check (mostly the fifth day); without a count, all were alive then. Some entries hold several experiments; the values are given in rising order. Some schedule codes hold Z or #, which are not explained here.

As for `COc1ccc2nc3cc(Cl)ccc3c(Nc3ccc(O)c(CN(CCCl)CCCl)c3)c2c1`, the T/C is 126 % of control (dose: 0.6 mg/kg/injection, schedule: Q01DX Z (ip), vehicle: saline); 128 % of control (dose: 1.2 mg/kg/injection, schedule: Q01DX Z (ip), vehicle: saline); 129 % of control (dose: 2.4 mg/kg/injection, schedule: Q01DX Z (ip), vehicle: saline). The survivor count was 0 of 6 (dose: 15.0 mg/kg/injection, schedule: Q04DX003 (ip), vehicle: saline); 2 of 6 (dose: 30.0 mg/kg/injection, schedule: Q04DX003 (ip), vehicle: saline); 3 of 4 under setting [1]; 1 of 6 (dose: 50.0 mg/kg/injection, schedule: Q04DX003 (ip), vehicle: saline); 2 of 4 under setting [2]; 1 of 6 (dose: 100.0 mg/kg/injection, schedule: Q04DX003 (ip), vehicle: saline). The survivor count is on record as 3 of 4 under setting [3], 0 of 6 under setting [4] and 0 of 4 under setting [5].
As for `CCCCCCCCCCCCCCCC(=O)NCCO`, the survivor count is 6 of 6 (dose: 100.0 mg/kg/injection, schedule: Q04DX003 (ip), vehicle: Klucel (hydroxypropylcellulose) (HPC)) and 6 of 6 under setting [6].
With `c1ccc(CSCc2ccccc2)cc1`, the survivor count (dose: 100.0 mg/kg/injection, schedule: Q01DX009 (ip), vehicle: Klucel (hydroxypropylcellulose) (HPC)) is 3 of 3.
Consider `CCCC[N+](C)(C)CCOC(=O)C1C2CC3OC(=O)C1C3C2` (centres undefined), for which the survivor count under setting [4] is given as 0 of 4 and the survivor count under setting [7] is 0 of 4.
In the case of `Cc1ccc(Cl)cc1NC(=O)Nc1ccc(F)c([N+](=O)[O-])c1`, the survivor count runs as follows: (dose: 50.0 mg/kg/injection, schedule: Q01DX009 (ip), vehicle: saline with Tween-80) 6 of 6; under setting [8], 6 of 6; (dose: 100.0 mg/kg/injection, schedule: Q04DX003 (ip), vehicle: saline with Tween-80) 6 of 6. Moreover, the T/C under setting [8] is 89, 90 [2 of 3 alive], 101 % of control.
As for `CC12CCc3occc3C1CCC13CC(CO)C(O)(CCC12)C3` (centres undefined), under setting [7], the survivor count is 2 of 4.
Regarding `O=c1[nH]c(-c2ccc(O)cc2)nc2[nH]ncc12`, the survivor count under setting [6] is listed as 6 of 6.
Regarding `CC(=O)Oc1ccc(N2CC=C(c3ccccc3)CC2)cc1`, the survivor count (dose: 400.0 mg/kg/injection, schedule: Q04DX002 (ip), vehicle: Klucel (hydroxypropylcellulose) (HPC)) was 3 of 3.
Regarding `CC(Cc1ccc2c(c1)OCO2)[N+](=O)[O-]` (centres undefined), the survivor count (dose: 75.0 mg/kg/injection, schedule: Q04DX003 (ip), vehicle: saline with Tween-80) is listed as 1 of 6.
With `CCOC(=O)c1c[nH]c2cc(OCC3CC3)c(OCC3CC3)cc2c1=O`, the survivor count reads like this: (dose: 200.0 mg/kg/injection, schedule: Q01DX009 (ip), vehicle: saline with Tween-80) 6 of 6; (dose: 400.0 mg/kg/injection, schedule: Q01DX009 (ip), vehicle: saline with Tween-80) 5 of 6.
With `C[N+]1(C2CC3CCC2C3=O)CCOCC1` (centres undefined), under setting [9], the survivor count is 2 of 6.
As for `CCN(CC)CCn1ncc2c1C1(C)CCC2C1(C)C` (centres undefined), the survivor count under setting [7] is reported as 0 of 6.
Regarding `CN(Cc1ccccc1)Cc1cc(CO)ccc1O`, the survivor count under setting [10] is recorded as 0 of 4.
As for `C1CCC(C2CCCC[N-]2)[N-]C1.C1CCC(C2CCCC[N-]2)[N-]C1.C1CCC(C2CCCC[N-]2)[N-]C1.[Fe+6]` (centres undefined), the survivor count under setting [1] is recorded as 0 of 6 and the survivor count under setting [2] is listed as 0 of 6.
As for `CCCCCCCCCCCC[n+]1ccc(C#N)cc1`, the survivor count was 0 of 6 (dose: 75.0 mg/kg/injection, schedule: Q01DX001 (ip), vehicle: saline); 0 of 6 (dose: 150.0 mg/kg/injection, schedule: Q01DX001 (ip), vehicle: saline); 0 of 6 under setting [9].
As to `[Se]c1ncnc2nc[nH]c12`, the survivor count (dose: 100.0 mg/kg/injection, schedule: Q01DX001 (ip), vehicle: carboxymethylcellulose (CMC)) is 3 of 6; the survivor count (dose: 200.0 mg/kg/injection, schedule: Q01DX001 (ip), vehicle: carboxymethylcellulose (CMC)) was 0 of 6; the survivor count under setting [10] is given as 0 of 6.
Regarding `O=[N+]([O-])c1ccc(-c2nn[nH]n2)cc1`, the survivor count (dose: 400.0 mg/kg/injection, schedule: Q04DX003 (ip), vehicle: saline with Tween-80) is recorded as 6 of 6. Also, the T/C under setting [7] is 132 % of control [4 of 6 alive].
Turning to `CCC(CCCN(CC)CCc1ccccc1)OC(=O)c1cc(OC)c(OC)c(OC)c1` (centres undefined), the survivor count is, setting by setting: (dose: 150.0 mg/kg/injection, schedule: Q01DX009 (ip), vehicle: saline) 0 of 6; (dose: 150.0 mg/kg/injection, schedule: Q04DX003 (ip), vehicle: saline) 3 of 4; (dose: 300.0 mg/kg/injection, schedule: Q01DX009 (ip), vehicle: saline) 0 of 6; (dose: 300.0 mg/kg/injection, schedule: Q04DX003 (ip), vehicle: saline) 0 of 4.
For `Cc1cc(C)c(CCN(C)C)c(C)c1C`, under setting [5], the survivor count is 1 of 4.
Consider `c1ccc(OCCC[P+](c2ccccc2)(c2ccccc2)c2ccccc2)cc1`, for which the survivor count by setting is: (dose: 100.0 mg/kg/injection, schedule: Q01DX001 (ip), vehicle: saline) 2 of 4; under setting [3], 0 of 4; under setting [5], 0 of 4.
Consider `C=C1C(=O)OC2C1C(O)C(OC(=O)/C(C)=C\C)C(C)=C1CC3OC3(C)C12` (centres undefined), for which the survivor count (dose: 100.0 mg/kg/injection, schedule: Q01DX001 (ip), vehicle: saline with Tween-80) is listed as 0 of 6.
